Measurements: the supplement of paper PMC4604168 (melanoma cell lines)
The other results are listed elsewhere or left out. Many values rest on one well or one pass, so single values are uncertain.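 Cells were imaged in 1,536-well plates, and nuclei stained with an antibody against cleaved PARP were counted against all DNA-stained nuclei to give the apoptosis fraction. Screening doses were chosen to leave most cells alive, and resting and induced cleaved-PARP levels differ strongly between cell lines.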

Tests used:
Test in all cases: cleaved PARP positive nuclei fraction relative to DMSO control; melanoma cells; higher = more apoptosis
Settings in all cases: library dose: low library concentration; 72 h
[1] = tested on: 501Mel
[2] = tested on: A101D
[3] = tested on: A2058
[4] = tested on: A375
[5] = tested on: C32
[6] = tested on: CBRC008 (line from a melanoma biopsy)
[7] = tested on: CBRC014 (line from a melanoma biopsy)
[8] = tested on: CBRC016 (line from a melanoma biopsy)
[9] = tested on: CBRC017 (line from a melanoma biopsy)
[10] = tested on: CBRC034 (line from a melanoma biopsy)
[11] = tested on: COLO792
[12] = tested on: COLO800
[13] = tested on: COLO829
[14] = tested on: G361
[15] = tested on: IPC-298
[16] = tested on: IST-MEL1
[17] = tested on: LB2518-MEL
[18] = tested on: LOXIMVI
[19] = tested on: MEL-HO

| Compound | cleaved PARP positive nuclei fraction [1] | cleaved PARP positive nuclei fraction [2] | cleaved PARP positive nuclei fraction [3] | cleaved PARP positive nuclei fraction [4] | cleaved PARP positive nuclei fraction [5] | cleaved PARP positive nuclei fraction [6] | cleaved PARP positive nuclei fraction [7] | cleaved PARP positive nuclei fraction [8] | cleaved PARP positive nuclei fraction [9] | cleaved PARP positive nuclei fraction [10] | cleaved PARP positive nuclei fraction [11] | cleaved PARP positive nuclei fraction [12] | cleaved PARP positive nuclei fraction [13] | cleaved PARP positive nuclei fraction [14] | cleaved PARP positive nuclei fraction [15] | cleaved PARP positive nuclei fraction [16] | cleaved PARP positive nuclei fraction [17] | cleaved PARP positive nuclei fraction [18] | cleaved PARP positive nuclei fraction [19] |
| --- | --- | --- | --- | --- | --- | --- | --- | --- | --- | --- | --- | --- | --- | --- | --- | --- | --- | --- | --- |
| Cn1cnc2c(F)c(Nc3ccc(Br)cc3Cl)c(C(=O)NOCCO)cc21 [selumetinib] + Cc1cc(Nc2cc(N3CCN(C)CC3)nc(/C=C/c3ccccc3)n2)n[nH]1 [ENMD2076] (first compound 0.015 µM, partner dose 0.04 µM) | 611% | 69.5% | 154% | 372% | 87.4% | 106% | 82% | 107% | 83.5% | 97.5% | 149% | 47.5% | 112% | 67.4% | 265% | 29.1% | 87.1% | 111% | 176% |
| CC(=O)O[C@@]12CO[C@@H]1C[C@H](O)[C@@]1(C)C(=O)[C@H](O)C3=C(C)[C@@H](OC(=O)[C@H](O)[C@@H](NC(=O)OC(C)(C)C)c4ccccc4)C[C@@](O)([C@@H](OC(=O)c4ccccc4)[C@H]21)C3(C)C [Docetaxel] + NC1(c2ccc(-c3nc4ccn5c(=O)[nH]nc5c4cc3-c3ccccc3)cc2)CCC1 [MK2206] (first compound 0.0001 µM, partner dose 0.4 µM) | 171% | 318% | 2090% | 10500% | 129% | 370% | 116% | 143% | 219% | 193% | 606% | 417% | 363% | 523% | 635% | 288% | 326% | 177% | 361% |
| NC1(c2ccc(-c3nc4ccn5c(=O)[nH]nc5c4cc3-c3ccccc3)cc2)CCC1 + Cc1nc(Nc2ncc(C(=O)Nc3c(C)cccc3Cl)s2)cc(N2CCN(CCO)CC2)n1 [dasatanib] (first compound 0.4 µM, partner dose 0.004 µM) | 86.6% | 423% | 33.1% | 288% | 119% | 131% | 89.9% | 127% | 84.9% | 108% | 373% | 20.1% | 122% | 125% | 58.1% | 76.2% | 221% | 196% | 39.8% |
| Cn1sc(=O)n(Cc2ccccc2)c1=O + COCC[n+]1c2c(n(Cc3cnccn3)c1C)C(=O)c1ccccc1C2=O [YM155] (first compound 0.4 µM, partner dose 0.0004 µM) | 68.2% | 46.2% | 101% | 477% | 148% | 113% | 105% | 289% | 118% | 68.7% | 111% | 26.1% | 94.4% | 77% | 42.6% | 89.9% | 233% | 188% | 150% |
| CC1(C)CCC(c2ccc(Cl)cc2)=C(CN2CCN(c3ccc(C(=O)NS(=O)(=O)c4ccc(N[C@H](CCN5CCOCC5)CSc5ccccc5)c(S(=O)(=O)C(F)(F)F)c4)cc3)CC2)C1 + NC(=O)c1ccc(N(C(N)=O)c2c(F)cccc2F)nc1-c1ccc(F)cc1F [VX702] (first compound 0.4 µM, partner dose 0.4 µM) | 248% | 277% | 85.2% | 739% | 149% | 589% | 819% | 868% | 249% | 120% | 416% | 49.1% | 104% | 176% | 79.7% | 449% | 136% | 1630% | 79.9% |
| NC(=O)c1ccc(N(C(N)=O)c2c(F)cccc2F)nc1-c1ccc(F)cc1F + NC1(c2ccc(-c3nc4ccn5c(=O)[nH]nc5c4cc3-c3ccccc3)cc2)CCC1 [MK2206] (first compound 0.4 µM, partner dose 0.4 µM) | 99% | 414% | 20.4% | 79.6% | 81.3% | 103% | 78.1% | 64.1% | 105% | 36% | 201% | 216% | 29.4% | 220% | 81.9% | 147% | 133% | 187% | 62% |
| Cn1sc(=O)n(Cc2ccccc2)c1=O + COc1ccc(Cl)c(Nc2nc3ccccc3nc2NS(=O)(=O)c2cccc(NC(=O)C(C)(C)N)c2)c1 [XL147] (first compound 0.4 µM, partner dose 0.8 µM) | 71% | 72% | 146% | 102% | 78.1% | 225% | 106% | 281% | 157% | 116% | 36.3% | 102% | 82.8% | 108% | 47.2% | 32% | 112% | 56.2% | 47.4% |
